According to patent US5637584A, “Solvate of olanzapine” (Eli Lilly and Company, priority 1995, dated 1997):

System: 5-HT1C receptor
Conditions: in vitro

Structure (SMILES): Cc1cc2c(s1)Nc1ccccc1N=C2N1CCN(C)CC1 [anhydrous Form I olanzapine, 2-methyl-4-(4-methyl-1-piperazinyl)-10H-thieno[2,3-b][1,5]benzodiazepine]
- activity at the 5-HT1C receptor: active
